This is one part of the list. These are raw signals, not scaled to a control.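 In the initial screen, polymyxin B was used at a concentration that permeabilizes Salmonella's outer membrane but not its inner membrane. Maximum growth was set by DMSO wells with or without polymyxin B. Since plates varied, data were ranked per plate, and compounds giving the lowest OD600 advanced as hits.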
System: Salmonella enterica serovar Typhimurium SL1344
Experiment: bacterial growth OD600 after 18 h with compound and polymyxin B; higher = more bacterial growth (less inhibition)
Settings: 50 µM, Mueller-Hinton broth

Structure (SMILES) | bacterial growth OD600 (polymyxin B 0.75 µg/mL) | bacterial growth OD600 (polymyxin B 1 µg/mL)
COc1ccc(OC)c(CN2CCOc3ccc(C(O)CCc4ccccc4)cc3C2)c1 (centres undefined) | 0.002 | 
CCc1cc(C(=O)NCc2cc(NS(=O)(=O)c3ccc(F)cc3)cc(C(=O)OC)c2)n(C)n1 | 0.851 | 
C=CCO[C@H]1[C@H](NC(=O)CSC)c2ccccc2C12CCN(Cc1cccc(OC)c1)CC2 | 0.813 | 
c1ccc2sc(N3CCCC(NC4CCSCC4)C3)nc2c1 (centres undefined) |  | 0.871
COc1cc(C(=O)NC2CCCCCCC2)ccc1OC1CCN(C(C)=O)CC1 |  | 0.884
CCCCN(Cc1ccccc1)Cc1nc(-c2ccc(OC)cc2)no1 |  | 0.85
COc1cc(CNC(C)c2cnn(-c3cccc(F)c3)c2C)cc(Cl)c1O (centres undefined) | 0.935 | 
CCc1nc(C)c(CN2CCC(Oc3ccc(C(=O)N4CCCC4)cc3)CC2)[nH]1 | 0.906 | 
COCC1CCN(C(=O)c2cc(NC(=O)CC3CCCC3)cc3nc(C4CCCO4)n(C)c23)CC1 (centres undefined) | 0.835 | 

Single records, from the list above:
`CCc1cc(C(=O)NCc2cc(NS(=O)(=O)c3ccc(F)cc3)cc(C(=O)OC)c2)n(C)n1` is listed with bacterial growth OD600 (polymyxin B 0.75 µg/mL): 0.851
`COc1cc(C(=O)NC2CCCCCCC2)ccc1OC1CCN(C(C)=O)CC1` is listed with bacterial growth OD600 (polymyxin B 1 µg/mL): 0.884
